Source: PubChem BioAssay AID220 (DTP/NCI, 2004)
The list is a part of this screen's results and no random one: it gathers some chemical classes. Other doses and runs of a compound may be missing. T/C gives the treated animals as a percentage of the vehicle group. Schedule codes are those of the source, taken here to give the interval after Q, in days (D) or hours (H), and the number of doses after X. Some entries hold several experiments; their values stand side by side, smallest first. Some T/C values carry the count of animals alive at the toxicity check; where neither a count nor a note follows, no animal had died by that day. Some metal complexes and salts are drawn in pieces, as in the source, so charges may not balance. Some doses have a count of surviving animals in place of a T/C: the source files T/C as zero there, which appears to mark a toxic dose or a test without result, not a measured value. Survivors were counted at the toxicity check; its day is shown where the source gives one, and later deaths do not show.

System: CD8F1 mice, subcutaneous mammary adenocarcinoma, T/C%
Experiment: NCI In Vivo Anticancer Drug Screen. Data for tumor model Mammary Adenocarcinoma CD8F1 (subcutaneous) in CD8F1
Conditions: higher T/C = larger tumour
Method: The antitumor activity of compounds was measured in mice bearing transplantable tumors. Survival or tumor size were measured and the results are expressed as the measurement made in the treated group (T) divided by the measurement made in the vehicle treated control group (C). The tumor model used in this assay is Mammary Adenocarcinoma CD8F1 (subcutaneous) in CD8F1

[1] = T/C endpoint: median tumor weight (est.), dose: 25.0 mg/kg/injection, schedule: Q07DX005 (ip), vehicle: Klucel (hydroxypropylcellulose) (HPC), evaluated on day 30
[2] = T/C endpoint: median tumor weight (est.), dose: 50.0 mg/kg/injection, schedule: Q07DX005 (ip), vehicle: Klucel (hydroxypropylcellulose) (HPC), evaluated on day 30
[3] = T/C endpoint: median tumor weight (est.), dose: 100.0 mg/kg/injection, schedule: Q07DX005 (ip), vehicle: Klucel (hydroxypropylcellulose) (HPC), evaluated on day 30
[4] = T/C endpoint: median tumor weight (est.), dose: 12.5 mg/kg/injection, schedule: Q07DX005 (ip), vehicle: Klucel (hydroxypropylcellulose) (HPC), evaluated on day 30

With `ClC1CSC1` as the compound, how does the T/C (T/C endpoint: median tumor weight change, dose: 125.0 mg/kg/injection, schedule: Q01DX001 (ip), vehicle: saline with Tween-80, evaluated on day 35) read?
The T/C was 45 % of control [9 of 10 alive on day 35].

And the survivor count (T/C endpoint: median tumor weight change, dose: 250.0 mg/kg/injection, schedule: Q01DX001 (ip), vehicle: saline with Tween-80)?
The survivor count was 4 of 10 on day 35.

And the survivor count (T/C endpoint: median tumor weight change, dose: 500.0 mg/kg/injection, schedule: Q01DX001 (ip), vehicle: saline with Tween-80)?
The survivor count was 0 of 10 on day 35.

And the survivor count (T/C endpoint: median tumor weight change, dose: 1000.0 mg/kg/injection, schedule: Q01DX001 (ip), vehicle: saline with Tween-80)?
Its survivor count is 0 of 10 on day 35.

What about the survivor count (T/C endpoint: median tumor weight change, dose: 2000.0 mg/kg/injection, schedule: Q01DX001 (ip), vehicle: saline with Tween-80) of the same compound?
The survivor count was 0 of 10 on day 35.

For `CC1(C)CN1P(=O)(Nc1ncccn1)N1CC1(C)C` (configuration not stated), which T/C (T/C endpoint: median tumor weight change, dose: 125.0 mg/kg/injection, schedule: Q01DX001 (ip), vehicle: saline, evaluated on day 25) is on record?
Its T/C is 130 % of control.

And the T/C (T/C endpoint: median tumor weight change, dose: 250.0 mg/kg/injection, schedule: Q01DX001 (ip), vehicle: saline, evaluated on day 25)?
Its T/C is 119 % of control.

What about the T/C (T/C endpoint: median tumor weight change, dose: 500.0 mg/kg/injection, schedule: Q01DX001 (ip), vehicle: saline, evaluated on day 25) of the same compound?
The T/C was 122 % of control.

What about the T/C (T/C endpoint: median tumor weight change, dose: 1000.0 mg/kg/injection, schedule: Q01DX001 (ip), vehicle: saline, evaluated on day 25) of the same compound?
The T/C was 122 % of control.

What about the survivor count (T/C endpoint: median tumor weight change, dose: 2000.0 mg/kg/injection, schedule: Q01DX001 (ip), vehicle: saline) of the same compound?
The survivor count was 6 of 10 on day 25.

With `CCCNC(=O)c1ccc(N(CCCl)CCCl)cc1` as the compound, how does the T/C [1] read?
The T/C was 124 % of control [9 of 10 alive].

And the T/C [2]?
The T/C was 161 % of control.

What about the T/C [3] of the same compound?
Its T/C is 154 % of control [9 of 10 alive].

With `Cc1ccc(Sc2ccc([N+](=O)[O-])cc2[N+](=O)[O-])c([N+](=O)[O-])c1` as the compound, how does the T/C (T/C endpoint: median tumor weight change, dose: 125.0 mg/kg/injection, schedule: Q01DX001 (ip), vehicle: Klucel (hydroxypropylcellulose) (HPC), evaluated on day 35) read?
Its T/C is 128 % of control.

What about the T/C (T/C endpoint: median tumor weight change, dose: 250.0 mg/kg/injection, schedule: Q01DX001 (ip), vehicle: Klucel (hydroxypropylcellulose) (HPC), evaluated on day 35) of the same compound?
Its T/C is 117 % of control [9 of 10 alive on day 35].

And the T/C (T/C endpoint: median tumor weight change, dose: 500.0 mg/kg/injection, schedule: Q01DX001 (ip), vehicle: Klucel (hydroxypropylcellulose) (HPC), evaluated on day 35)?
The T/C was 84 % of control.

What about the T/C (T/C endpoint: median tumor weight change, dose: 1000.0 mg/kg/injection, schedule: Q01DX001 (ip), vehicle: Klucel (hydroxypropylcellulose) (HPC), evaluated on day 35) of the same compound?
The T/C was 54 % of control.

What about the T/C (T/C endpoint: median tumor weight change, dose: 2000.0 mg/kg/injection, schedule: Q01DX001 (ip), vehicle: Klucel (hydroxypropylcellulose) (HPC), evaluated on day 35) of the same compound?
The T/C was 32 % of control.

Which results are given for `[Au].[C-]#N.[C-]#N`?
T/C (T/C endpoint: median tumor weight change, dose: 3.0 mg/kg/injection, schedule: Q01DX001 (ip), vehicle: saline, evaluated on day 32): 117 % of control; T/C (T/C endpoint: median tumor weight change, dose: 3.12 mg/kg/injection, schedule: Q01DX001 (ip), vehicle: saline, evaluated on day 29): 79 % of control; T/C (T/C endpoint: median tumor weight change, dose: 6.0 mg/kg/injection, schedule: Q01DX001 (ip), vehicle: saline, evaluated on day 32): 94 % of control; T/C (T/C endpoint: median tumor weight change, dose: 6.25 mg/kg/injection, schedule: Q01DX001 (ip), vehicle: saline, evaluated on day 29): 70 % of control; T/C (T/C endpoint: median tumor weight change, dose: 12.0 mg/kg/injection, schedule: Q01DX001 (ip), vehicle: saline, evaluated on day 32): 121 % of control; T/C (T/C endpoint: median tumor weight change, dose: 12.5 mg/kg/injection, schedule: Q01DX001 (ip), vehicle: saline, evaluated on day 28): 75 % of control [9 of 10 alive on day 28]; T/C (T/C endpoint: median tumor weight change, dose: 12.5 mg/kg/injection, schedule: Q01DX001 (ip), vehicle: saline, evaluated on day 29): 67 % of control; survivor count (T/C endpoint: median tumor weight change, dose: 25.0 mg/kg/injection, schedule: Q01DX001 (ip), vehicle: saline): 0 of 10 on day 28, 1 of 10 on day 28, 1 of 10 on day 32; survivor count (T/C endpoint: median tumor weight change, dose: 50.0 mg/kg/injection, schedule: Q01DX001 (ip), vehicle: saline): 0 of 10 on day 28; survivor count (T/C endpoint: median tumor weight change, dose: 100.0 mg/kg/injection, schedule: Q01DX001 (ip), vehicle: saline): 0 of 10 on day 28; survivor count (T/C endpoint: median tumor weight change, dose: 200.0 mg/kg/injection, schedule: Q01DX001 (ip), vehicle: saline): 0 of 10 on day 28

`Nc1cc([As]=O)ccc1O` (configuration not stated) was tested. Which T/C (T/C endpoint: median tumor weight (est.), dose: 3.12 mg/kg/injection, schedule: Q07DX005 (ip), vehicle: saline with Tween-80, evaluated on day 30) did it give?
The T/C was 168 % of control.

And the T/C (T/C endpoint: median tumor weight (est.), dose: 6.25 mg/kg/injection, schedule: Q07DX005 (ip), vehicle: saline with Tween-80, evaluated on day 30)?
The T/C was 153 % of control.

What about the T/C (T/C endpoint: median tumor weight (est.), dose: 12.5 mg/kg/injection, schedule: Q07DX005 (ip), vehicle: saline with Tween-80, evaluated on day 30) of the same compound?
Its T/C is 152 % of control.

What about the T/C (T/C endpoint: median tumor weight (est.), dose: 25.0 mg/kg/injection, schedule: Q07DX005 (ip), vehicle: saline with Tween-80, evaluated on day 30) of the same compound?
Its T/C is 127 % of control.

And the T/C (T/C endpoint: median tumor weight (est.), dose: 50.0 mg/kg/injection, schedule: Q07DX005 (ip), vehicle: saline with Tween-80, evaluated on day 30)?
The T/C was 118 % of control.

What about the survivor count (T/C endpoint: median tumor weight (est.), dose: 100.0 mg/kg/injection, schedule: Q07DX005 (ip), vehicle: saline with Tween-80) of the same compound?
Its survivor count is 0 of 10 on day 30.

For `C[As](C)SC1OC(CO)C(O)C(O)C1O` (configuration not stated), which T/C (T/C endpoint: median tumor weight (est.), dose: 6.25 mg/kg/injection, schedule: Q07DX005 (ip), vehicle: saline, evaluated on day 30) is on record?
The T/C was 47 % of control [9 of 10 alive on day 30].

And the T/C (T/C endpoint: median tumor weight (est.), dose: 12.5 mg/kg/injection, schedule: Q07DX005 (ip), vehicle: saline, evaluated on day 30)?
Its T/C is 118 % of control.

And the T/C (T/C endpoint: median tumor weight (est.), dose: 25.0 mg/kg/injection, schedule: Q07DX005 (ip), vehicle: saline, evaluated on day 30)?
Its T/C is 58 % of control [7 of 10 alive on day 30].

What about the T/C (T/C endpoint: median tumor weight (est.), dose: 50.0 mg/kg/injection, schedule: Q07DX005 (ip), vehicle: saline, evaluated on day 30) of the same compound?
The T/C was 74 % of control.

And the survivor count (T/C endpoint: median tumor weight (est.), dose: 100.0 mg/kg/injection, schedule: Q07DX005 (ip), vehicle: saline)?
Its survivor count is 6 of 10 on day 30.

And the survivor count (T/C endpoint: median tumor weight (est.), dose: 200.0 mg/kg/injection, schedule: Q07DX005 (ip), vehicle: saline)?
The survivor count was 1 of 10 on day 30.

`NC(=O)Nc1ccc(N(CCCl)CCCl)cc1` was tested. Which T/C [4] did it give?
The T/C was 60 [9 of 10 alive on day 30] and 91 % of control.

What about the T/C [1] of the same compound?
The T/C was 57 and 123 % of control.

And the T/C [2]?
The T/C was 32 % of control [7 of 10 alive].

What about the survivor count (T/C endpoint: median tumor weight (est.), dose: 50.0 mg/kg/injection, schedule: Q07DX005 (ip), vehicle: Klucel (hydroxypropylcellulose) (HPC)) of the same compound?
The survivor count was 4 of 10 on day 30.

And the survivor count (T/C endpoint: median tumor weight (est.), dose: 100.0 mg/kg/injection, schedule: Q07DX005 (ip), vehicle: Klucel (hydroxypropylcellulose) (HPC))?
Its survivor count is 0 of 10 on day 30.

`CC(=O)OC(SC(OC(C)=O)C(Cl)(Cl)Cl)C(Cl)(Cl)Cl` (configuration not stated) was tested. Which T/C [4] did it give?
Its T/C is 78 % of control.

What about the T/C [1] of the same compound?
The T/C was 99 % of control.

And the T/C [2]?
Its T/C is 74 % of control.

What about the T/C [3] of the same compound?
Its T/C is 97 % of control.

What about the T/C (T/C endpoint: median tumor weight (est.), dose: 200.0 mg/kg/injection, schedule: Q07DX005 (ip), vehicle: Klucel (hydroxypropylcellulose) (HPC), evaluated on day 30) of the same compound?
The T/C was 97 % of control.

What about the T/C (T/C endpoint: median tumor weight (est.), dose: 400.0 mg/kg/injection, schedule: Q07DX005 (ip), vehicle: Klucel (hydroxypropylcellulose) (HPC), evaluated on day 30) of the same compound?
Its T/C is 98 % of control.
